## Primary screen of a compound library

By UniProt entry, the sequences of proteins in these tests, tags left out. Residues count along the entry.
UniProt A4I591, 1-473: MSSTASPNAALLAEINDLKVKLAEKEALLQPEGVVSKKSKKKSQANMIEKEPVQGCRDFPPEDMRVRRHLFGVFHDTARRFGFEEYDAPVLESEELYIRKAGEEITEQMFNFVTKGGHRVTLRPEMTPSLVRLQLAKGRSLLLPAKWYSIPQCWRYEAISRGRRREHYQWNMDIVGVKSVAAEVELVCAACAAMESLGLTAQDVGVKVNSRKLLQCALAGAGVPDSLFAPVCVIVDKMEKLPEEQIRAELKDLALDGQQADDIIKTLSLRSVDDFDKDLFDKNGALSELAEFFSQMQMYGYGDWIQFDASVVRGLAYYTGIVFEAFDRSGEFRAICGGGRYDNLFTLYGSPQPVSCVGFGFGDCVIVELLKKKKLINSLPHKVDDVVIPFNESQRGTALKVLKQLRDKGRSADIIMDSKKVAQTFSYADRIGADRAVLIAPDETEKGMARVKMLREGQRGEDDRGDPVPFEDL

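Enzyme assay of histidyl-tRNA synthetase; the read-out is not stated. Target: Histidine-tRNA ligase, Leishmania infantum (UniProt A4I591). Concentration: 30 µM. Higher reads as stronger inhibition (inferred: compounds with an IC50 in retests scored well above the rest). The assay is labelled LdHisRS but filed under L. infantum. About 69,000 compounds were tested under these conditions; 0.6% (about 410) showed 50% or more at least once.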

The filed quantity is “Percent Effect” (%).
How 0% and 100% were set is not recorded. Most values in the screen are low, and negative values occur.
This is an unselected part of the compounds tested.

NC(=O)C1CCN(C(=O)NC2CCc3cc(Cl)ccc32)CC1 (stereo not shown) gave 12.39%. For O=C(c1ccc(S(=O)(=O)NCCc2ccncc2)cc1)N1CCCC1 the result was 16.33%. With FC(F)(F)C1CCCn2c(CNCc3cccs3)nnc21 (stereo not shown) the screen gave 12.9%. For Cc1nc2c(c(=O)n1C)CN(C(=O)C1CCCN(CC(N)=O)C1)C2 (stereo not shown) the result was -6.25%. For CCc1cc(C)c(C(=O)N2CCCC(c3nnn[nH]3)C2)o1 (stereo not shown) the result was 17.14%. Result for Cc1nn(C)c(C)c1C1CCCN1C(=O)c1ccc2nnc(C)n2c1 (stereo not shown) was 14.68%. For Cc1ccsc1CN(CCN(C)C)Cc1ccccn1 the result was -6.731%.

O=C(Nc1cnc2n1CCCC2)c1cccc(OCC(F)(F)F)c1 read 12.33%. With CCc1nc(C2CCCN(C(=O)c3c[nH]c(C(C)C)n3)C2)no1 (stereo not shown) the screen gave 2.198%. O=C(c1cc(=O)[nH]c(=O)[nH]1)N1CCCC(CO)(CC2CC2)C1 (stereo not shown) gave 4.839%. O=C(N1CCCC1)N1CCN(c2ccc(Cl)nn2)C(=O)C1 gave -8.276%. O=C(CCC1CCCO1)NCCN1CCCCC1 (stereo not shown) gave 9.302%. Cn1cc(CN2CC[C@@H]3O[C@H](C(=O)N4CCOCC4)C[C@@H]32)cn1 gave 0%. CCc1nc(C)c([C@H]2CN(C)C[C@@H]2C(=O)NCc2ccccn2)[nH]1 gave 3.03%.

O=S(=O)(C1CC1)N1CCO[C@H]2[C@H](OCC3CCCC3)CC[C@@H]21 gave 16.98%. CO[C@@H]1CC[C@H]2[C@H]1OCCN2Cc1ccc(F)cc1 gave 11.11%. Result for Cn1cccc1-c1cc(C(=O)N2CCCC2c2ccc(C(N)=O)s2)[nH]n1 (stereo not shown) was 2.778%. Result for O=C1CC(c2cccnc2)c2c(c(C(=O)O)cn2-c2ccc(Cl)cc2)N1 (stereo not shown) was 27.17%. With Cc1noc(C)c1CN1CCCC2(C1)CN(Cc1nccn1C)CCO2 (stereo not shown) the screen gave 25.71%. CCc1cc(C(=O)N2CCC3(CCCN(CC4CC4)C3=O)C2)cs1 (stereo not shown) read -49.12%. Result for CC(C)c1nnc2sc(CC3CCS(=O)(=O)C3)nn12 (stereo not shown) was -11.76%.

CCOC(=O)C1CN(C(=O)C2CCOCC2)Cc2ncn(CC)c21 (stereo not shown) gave 22%. O=S(=O)(N(Cc1ccccn1)C1CC1)N1CCCC1c1ccco1 (stereo not shown) gave 15.38%. Cc1noc(C)c1CCCNC(=O)C1CCCN(C(=O)C2CC2)C1 (stereo not shown) read 13.7%. With Cn1ccc(C(=O)N2CCCC(c3cc(O)n(C)n3)C2)n1 (stereo not shown) the screen gave 23.96%. Result for CCc1nnc(CN(C)C(=O)C(CC)n2c(CC)nc3ccccc32)o1 (stereo not shown) was 9.756%. CCOCC(=O)NCCc1nc(C)cc(C(F)(F)F)n1 read 23.91%. With O=C(NCC1CCCO1)N1CCN(Cc2ccc3c(c2)CCO3)CC1 (stereo not shown) the screen gave 14.91%.

Cc1occc1C(=O)N1C[C@@H]2[C@@H](C1)OCC(=O)N2Cc1cccnc1 read 11.5%. Result for COc1cc(-c2nc(CN(CCO)CCO)c(C)o2)ccc1F was 6.557%. O=C(COC[C@H]1CC[C@H]2[C@H](CCN2c2ncccn2)O1)N1CCCC1 gave 13.33%. For CC1=N[C@@]2(CC[C@@H]3CN(C(=O)NC(C)C)C[C@@H]32)C(=O)N1CC1CC1 the result was 11.11%.

Some entries from above, unchanged:

Compound,Percent Effect
O=C(COC[C@H]1CC[C@H]2[C@H](CCN2c2ncccn2)O1)N1CCCC1,13.33
CC1=N[C@@]2(CC[C@@H]3CN(C(=O)NC(C)C)C[C@@H]32)C(=O)N1CC1CC1,11.11
Cn1cccc1-c1cc(C(=O)N2CCCC2c2ccc(C(N)=O)s2)[nH]n1 (stereo not shown),2.778
CCc1nc(C2CCCN(C(=O)c3c[nH]c(C(C)C)n3)C2)no1 (stereo not shown),2.198

From ChEMBL document CHEMBL3988442, “University of Dundee, Small-Polar-MMV Screening Library” (2021).